Reference: the supplement of paper PMC8166895
Structures can show the parent of a compound that is named as a salt. The list shows a part of the results. Most values lie at the level of the controls, where differences are scatter.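 Melting temperature was read by differential scanning fluorimetry in a single-replicate pilot screen of a library of approved drugs and clinical or known-target compounds. Compounds raising the melting point by at least 2 °C were the top stabilizing hits, and negative shifts mean destabilization.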

System: SARS-CoV-2 main protease (Mpro, nsp5)
Assay: thermal shift ΔTm of Mpro relative to plate average Tm; higher = stronger thermal stabilization of Mpro (binding)
Conditions: 10 µM; protein concentration 1 µM

Structure (SMILES) | thermal shift ΔTm of Mpro
CC(=O)Nc1ncc([N+](=O)[O-])s1 [Nithiamide] | 0.00848 °C
OC[C@H]1O[C@@H](Oc2cc(O)cc(/C=C/c3ccc(O)cc3)c2)[C@H](O)[C@@H](O)[C@@H]1O [Polydatin] | 0.00895 °C
O=c1c(O)c(-c2ccc(O)cc2O)oc2cc(O)cc(O)c12 [Morin Hydrate] | -0.0858 °C
COc1ccc(C2CNC(=O)C2)cc1OC1CCCC1 (configuration not stated) [Rolipram] | 0.184 °C
CC(=O)Nc1nc(C)c(-c2ccc(Cl)c(S(=O)(=O)NCCO)c2)s1 | 0.464 °C
Cc1cc(O)c(-c2ccc([C@@H](C)CN)cc2)c2c1[nH]c(=O)c1sccc12 [OTS514 hydrochloride] | 0.00971 °C
[Na+].[Na+].[Na+].[O]=[V]([O-])([O-])[O-] [Sodium orthovanadate] | 0.263 °C
Cc1c(Cl)cccc1S(=O)(=O)Nc1nc(CC(=O)N2CCN(C)CC2)cs1 | 0.0508 °C
C[C@@H](Nc1cc(NS(=O)(=O)N2CCC2)nc(SCc2cccc(F)c2F)n1)[C@@H](O)CO | 0.02 °C
CC(C)c1cc(Oc2c(Cl)cc(-n3nc(C#N)c(=O)[nH]c3=O)cc2Cl)n[nH]c1=O | -0.124 °C
O=[N+]([O-])c1cc([As](=O)(O)O)ccc1O [Roxarsone] | 0.154 °C
O=S(=O)(O)c1cc(O)ccc1O [Ethamsylate] | -0.386 °C
O=C1C[C@@H](c2ccc(O)cc2)Oc2cc(O)cc(O)c21 [Naringenin] | 0.0106 °C
CCC(=O)O[C@]1(C(=O)CCl)[C@@H](C)C[C@H]2[C@@H]3CCC4=CC(=O)C=C[C@]4(C)[C@@]3(F)[C@@H](O)C[C@@]21C [Clobetasol propionate] | -0.117 °C
O=C1OCCN1/N=C/c1ccc([N+](=O)[O-])o1 [Furazolidone] | 0.117 °C
NC(=O)c1ccc([N+](=O)[O-])cc1Cl [Alkomide] | -0.0895 °C
CCOC(=O)[C@H](CCc1ccccc1)N[C@H]1CS[C@H](c2cccs2)CN(CC(=O)O)C1=O [Temocapril HCl] | 0.172 °C
COc1ccc(F)c(F)c1C(=O)c1cnc(NC2CCN(S(C)(=O)=O)CC2)nc1N | -0.0378 °C
CCc1nn(C)c(C(=O)NCc2ccc(C(C)(C)C)cc2)c1Cl [Tebufenpyrad] | 0.176 °C
Nc1nc2n[nH]nc2c(=O)[nH]1 [Azaguanine-8] | -0.0732 °C
C[C@H]1C[C@H]2[C@@H]3C[C@H](F)C4=CC(=O)C=C[C@]4(C)[C@@]3(F)[C@@H](O)C[C@]2(C)[C@@]1(O)C(=O)CO [Diflorasone] | 0.414 °C
CN(C)c1nc(N(C)C)nc(N(C)C)n1 [Altretamine] | 0.177 °C
COc1cc2c(cc1-c1c(C)noc1C)ncc1[nH]c(=O)n([C@H](C)c3ccccn3)c12 | 0.156 °C
N[C@H](C(=O)O)[C@H](O)c1ccc(O)c(O)c1 [Droxidopa] | -0.0176 °C
COc1nccc(-c2c(-c3ccc(F)cc3)ncn2C2CCNCC2)n1 | -0.0134 °C
CCn1c(=O)c(-c2cc[nH]n2)cc2c(C)nc(N)nc21 [Voxtalisib] | -0.0625 °C

4 entries from above, with tabs:
Structure (SMILES)	thermal shift ΔTm of Mpro
C[C@@H](Nc1cc(NS(=O)(=O)N2CCC2)nc(SCc2cccc(F)c2F)n1)[C@@H](O)CO	0.02 °C
CC(C)c1cc(Oc2c(Cl)cc(-n3nc(C#N)c(=O)[nH]c3=O)cc2Cl)n[nH]c1=O	-0.124 °C
O=[N+]([O-])c1cc([As](=O)(O)O)ccc1O [Roxarsone]	0.154 °C
O=S(=O)(O)c1cc(O)ccc1O [Ethamsylate]	-0.386 °C

More records follow:

Structure (SMILES) | thermal shift ΔTm of Mpro
COc1cc2c(Oc3ccc4[nH]c(C)cc4c3F)ncnc2cc1OCCCN1CCCC1 [Cediranib (AZD2171)] | -0.169 °C
CC(C)(C)c1nc2c3cc[nH]c(=O)c3c3cc(F)ccc3c2[nH]1 [Pyridone 6] | -0.0439 °C
CC(=O)O[C@]1(C(C)=O)CC[C@H]2[C@@H]3C[C@H](C)C4=CC(=O)CC[C@]4(C)[C@H]3CC[C@@]21C [Medroxyprogesterone acetate] | 0.0226 °C
O=C(O)c1cc(-c2ccccc2)nc2ccccc12 [Cinchophen] | -0.0159 °C
C[C@H]1C[C@@H]2[C@H]([C@@H](O)C[C@@]3(C)[C@H]2CC[C@]3(O)C(=O)CO)[C@@]2(C)C=CC(=O)C=C12 [Methylprednisolone] | -0.0336 °C
CCn1cc(-c2cccc(C(F)(F)F)c2)c2sc(C(=N)NC3CCS(=O)(=O)CC3)cc2c1=O | -0.093 °C
CCCNCC(O)COc1ccccc1C(=O)CCc1ccccc1 (configuration not stated) [Propafenone HCl] | -0.0481 °C
CCCNCC(O)COc1ccccc1C(=O)CCc1ccccc1 (configuration not stated) [Propafenone] | 0.0418 °C
C/C(=C/C(=O)O)C(=O)O [Citraconic acid] | -0.0302 °C
O=C1c2ccc(Nc3ccc(F)cc3F)cc2CCc2ccc(OC[C@H](O)CO)cc21 [Skepinone-L] | -0.202 °C
CCc1ccc(C(=O)COc2ccc(CC3SC(=O)NC3=O)cc2)nc1 (configuration not stated) | 0.0106 °C
CNS(=O)(=O)C[C@H]1CC[C@H](N(C)c2[nH]cnc3nccc2-3)CC1 [Oclacitinib] | 0.00881 °C
O=C(Nc1ccccc1)Nc1ccccc1 [1,3-Diphenylurea] | -0.276 °C
CN(C)C(=S)NN=C(c1ccccn1)c1ccccn1 | -0.308 °C
COc1ccccc1OCC(O)CN1CCN(CC(=O)Nc2c(C)cccc2C)CC1 (configuration not stated) [Ranolazine 2HCl] | 0.202 °C
COc1ccccc1OCC(O)CN1CCN(CC(=O)Nc2c(C)cccc2C)CC1 (configuration not stated) [Ranolazine] | 0.0772 °C
COc1cc([C@@H]2c3cc4c(cc3[C@@H](O[C@@H]3O[C@@H]5CO[C@@H](C)O[C@H]5[C@H](O)[C@H]3O)[C@H]3COC(=O)[C@H]23)OCO4)cc(OC)c1O [Etoposide] | -0.259 °C
O=S(=O)(O)NC1CCCCC1 [Cyclamic  acid] | -0.085 °C
O=C(O)C(O)Cc1ccccc1 (racemic) [DL-3-Phenyllactic acid] | 0.159 °C
CCN(CC)CCc1nc(-c2ccccc2)no1 [Oxolamine citrate] | 0.257 °C
COc1ccc([C@]2(C#N)CC[C@@H](C(=O)O)CC2)cc1OC1CCCC1 [Cilomilast] | 0.213 °C
CCOc1c2c(c(OCC)c3ccccc13)C(=O)N(c1ccc(CC(=O)NS(=O)(=O)c3ccccc3)cc1)C2 | 0.0737 °C
CNCC(O)c1ccc(OC(=O)C(C)(C)C)c(OC(=O)C(C)(C)C)c1 (configuration not stated) [Dipivefrin hydrochloride] | 0.0185 °C
COCC[n+]1c2c(n(Cc3cnccn3)c1C)C(=O)c1ccccc1C2=O [YM155 (Sepantronium Bromide)] | -0.183 °C
O=C(NCCO)c1cccc(-c2cc(Nc3ccc(OC(F)(F)F)cc3)ncn2)c1 | 0.234 °C
C#CC[C@H](c1nc2cc(Cl)ccc2c(=O)n1Nc1ccccc1)N(CCCN)C(=O)c1cccc(Cl)c1F | -0.365 °C
